Data from PMC9534319.

The chains behind the UniProt entries cited, without tags or fusion partners. Where a name states a change or a piece, a line headed by the entry shows the natural chain unless it says otherwise.
UniProt Q6GTX8: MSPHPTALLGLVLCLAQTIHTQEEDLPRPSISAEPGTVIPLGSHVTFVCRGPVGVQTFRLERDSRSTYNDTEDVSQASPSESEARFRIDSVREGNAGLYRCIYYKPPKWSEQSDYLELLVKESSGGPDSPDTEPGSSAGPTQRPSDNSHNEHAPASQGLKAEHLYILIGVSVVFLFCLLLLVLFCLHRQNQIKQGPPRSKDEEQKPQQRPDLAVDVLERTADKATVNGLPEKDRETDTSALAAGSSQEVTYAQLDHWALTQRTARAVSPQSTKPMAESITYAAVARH
UniProt P02452: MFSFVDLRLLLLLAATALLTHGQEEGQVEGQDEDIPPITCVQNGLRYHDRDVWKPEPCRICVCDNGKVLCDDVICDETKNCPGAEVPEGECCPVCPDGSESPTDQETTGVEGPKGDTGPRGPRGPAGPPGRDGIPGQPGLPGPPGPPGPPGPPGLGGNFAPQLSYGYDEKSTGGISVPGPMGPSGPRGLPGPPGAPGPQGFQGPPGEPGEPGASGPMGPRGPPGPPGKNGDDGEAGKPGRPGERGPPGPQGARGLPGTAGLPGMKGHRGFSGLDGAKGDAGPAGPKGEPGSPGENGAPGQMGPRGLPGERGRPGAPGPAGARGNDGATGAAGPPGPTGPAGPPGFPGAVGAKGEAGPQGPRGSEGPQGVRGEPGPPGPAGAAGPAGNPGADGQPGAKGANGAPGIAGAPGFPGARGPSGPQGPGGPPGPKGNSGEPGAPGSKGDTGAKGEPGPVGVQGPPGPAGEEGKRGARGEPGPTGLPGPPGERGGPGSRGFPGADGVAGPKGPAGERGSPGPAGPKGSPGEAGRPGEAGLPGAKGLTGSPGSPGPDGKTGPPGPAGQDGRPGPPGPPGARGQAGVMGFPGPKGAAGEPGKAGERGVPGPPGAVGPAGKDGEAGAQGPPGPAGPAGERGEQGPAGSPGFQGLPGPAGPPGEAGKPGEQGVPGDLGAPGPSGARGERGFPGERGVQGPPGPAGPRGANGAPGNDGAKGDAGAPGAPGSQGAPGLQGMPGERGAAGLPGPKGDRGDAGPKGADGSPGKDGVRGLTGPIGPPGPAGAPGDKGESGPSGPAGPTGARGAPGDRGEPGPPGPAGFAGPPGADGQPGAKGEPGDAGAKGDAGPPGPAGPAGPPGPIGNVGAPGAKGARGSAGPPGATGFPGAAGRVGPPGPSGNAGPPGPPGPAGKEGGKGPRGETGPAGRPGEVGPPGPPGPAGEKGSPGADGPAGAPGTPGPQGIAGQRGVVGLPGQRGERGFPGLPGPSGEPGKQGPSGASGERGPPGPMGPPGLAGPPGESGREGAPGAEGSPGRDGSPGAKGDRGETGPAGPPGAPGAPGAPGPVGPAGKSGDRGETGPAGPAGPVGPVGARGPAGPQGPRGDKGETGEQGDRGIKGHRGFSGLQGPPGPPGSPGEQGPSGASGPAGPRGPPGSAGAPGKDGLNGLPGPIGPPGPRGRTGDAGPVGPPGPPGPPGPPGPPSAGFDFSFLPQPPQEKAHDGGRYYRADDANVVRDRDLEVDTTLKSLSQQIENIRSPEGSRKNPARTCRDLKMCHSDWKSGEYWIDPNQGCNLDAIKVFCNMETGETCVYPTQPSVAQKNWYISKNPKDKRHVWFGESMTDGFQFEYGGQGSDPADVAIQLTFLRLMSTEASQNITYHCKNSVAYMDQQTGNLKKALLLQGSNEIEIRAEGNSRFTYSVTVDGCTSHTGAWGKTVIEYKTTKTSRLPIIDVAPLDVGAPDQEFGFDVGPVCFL

Molecular target: his tagged human LAIR1 recombinant protein (human) (UniProt Q6GTX8)
Assay: BLI; Octet RED96: NTA biosensors capture his tagged human LAIR1 (20 μg/ml); h219 or control antibody h94 (40 μg/ml) loaded; then collagen I (80 μg/ml) binding signal detected; both purified

binding: binds
Substance: Collagen I (from UniProt P02452 162-1218; P08123 80-1119)

No constants are given. Whether binding was seen depends on the method and setting. Binding can be weak; no strength is given.
